Patent US9895338B1, “Cobalt-polypyridyl complex for treatment of cancer, a pharmaceutical composition and a kit comprising it” (Macau University of Science and Technology, priority 2016, dated 2018)
For part of these data: At least one compound was matched to its structure with a doubt left. Some of these results come from one statement about several compounds together.

Experiments:
[1] = test system: LLC-1 Lewis lung cancer cells; assay: Mouse lung cancer xenograft model, tumor volume; type: in vivo; settings: IP 40 mg/kg/day, 10 days, LLC-1 tumors in mice, P<0.05
[2] = test system: cancer cells from different origins; assay: MTT cytotoxicity assay, summary over cancer cell lines; type: cell-based; settings: range over the cancer cell lines of Table 1; read-out: mean IC50 values ranging (anti-cancer potency)
Procedure: All prepared cobalt-polypyridyl complexes were dissolved in DMSO at a final concentration of 50 mmol/L and stored at −20° C. before use. Cytotoxicity was assessed by using the 3-(4,5-dimethylthiazol-2-yl)-2,5-diphenyltetrazolium bromide (MTT) (5.0 mg/ml) assay as previously described (Wong, V. K. et al., Cell Death Dis, 2013, 4, e720). Briefly, 4×10^3 cells per well were seeded in 96-well plates before drug treatments. After overnight culture, the cells were then exposed to different concentrations of selected compounds (0.039-100 μmol/L) for 72 h. Cells without drug treatment were used as control. Subsequently, MTT (10 μL) solution was added to each well and incubated at 37° C. for 4 h followed by the addition of 100 μL solubilization buffer (10% SDS in 0.01 mol/L HCl) and overnight incubation. A570 nm was then determined in each well on the next day. The percentage of cell viability was calculated using the following formula: Cell viability (%)=Atreated/Acontrol×100. Data were obtained from three independent experiments. Cells include HeLa cells (cervical cancer), MCF-7 (breast cancer), H1299, H1975, A549 and LLC-1 (lung cancer), HepG2 and Hep3B (liver cancer) and LO2 (normal human hepatocytes).
By contrast, the cytotoxicity was lower in LO2 normal human hepatocytes. […]

[3] = test system: LC3-II protein conversion; assay: Western blotting of LC3-I to LC3-II conversion; type: cell-based; settings: Western blot; complex at 10 μM and 20 μM
Procedure: After drug treatment, adherent and floating cells were lysed with RIPA lysis buffer. Protein concentrations were determined using the Bio-Rad protein assay (Bio-Rad Laboratories, Inc., Hercules, Calif., USA). The cell lysates of samples were subjected to electrophoresis on SDS polyacrylamide gels and transferred to Hybond enhanced chemiluminescence nitrocellulose membranes (Amersham Biosciences, Piscataway, N.J.), which were then blocked with 5% non-fat dry milk protein for 1 h. Membranes were then incubated with the indicated primary antibodies overnight at 4° C. The binding of the antibody was visualized by peroxidase-coupled secondary antibody using the ECL Western Blotting Detection Reagents (Invitrogen, Paisley, Scotland, UK). Band intensities were quantified by using the software ImageJ (NIH, Bethesda, Md., USA).

With `Cc1ccnc(-c2cc(C)ccn2)c1.Cc1ccnc(-c2cc(C)ccn2)c1.Cc1ccnc(-c2cc(C)ccn2)c1.[Cl-].[Cl-].[Cl-].[Co+3]` [complex (IV)-Cl] the “reduction in tumor volume” value [1] was “up to 40%”.

`COc1ccnc(-c2cc(OC)ccn2)c1.COc1ccnc(-c2cc(OC)ccn2)c1.COc1ccnc(-c2cc(OC)ccn2)c1.F[P-](F)(F)(F)(F)F.F[P-](F)(F)(F)(F)F.F[P-](F)(F)(F)(F)F.[Co+3]` [complex (VII), [Co^III(4,4′-(OMe)2-Bpy)3](PF6)3] was tested, and the IC50 [2] was 2.79 to 18.6 µM.

For `CO[C@H]1C[C@@H]2CC[C@@H](C)[C@@](O)(O2)C(=O)C(=O)N2CCCC[C@H]2C(=O)O[C@H]([C@H](C)C[C@@H]2CC[C@@H](O)[C@H](OC)C2)CC(=O)[C@H](C)/C=C(\C)[C@@H](O)[C@@H](OC)C(=O)[C@H](C)C[C@H](C)/C=C/C=C/C=C/1C` [rapamycin, reference compound], the “LC3-I to LC3-II protein conversion” value [3] was “increased the LC3-II conversion”.
